Experimental data as given in article doi:10.1101/112466.
These are yes or no findings as the source states them, for the method shown. In cells and extracts the contact can be indirect. Some binding calls cover weakened binding; strength is not graded here. Each block holds one binder with its values, some of them ahead of it.

Experiments:
Assay in all cases: FRET or BRET
CCR6 (human) = CCR6 (human) (UniProt P51684)
[1] = target: CarB (Dictyostelium discoideum) (UniProt P34907)
[2] = target: leucine-rich repeat containing receptor LGR5 (human) (UniProt O75473)
[3] = target: CrlC (Dictyostelium discoideum) (UniProt Q6UUW6)
FZD10 (human) = FZD10 (human) (UniProt Q9ULW2)

- binding [2]: binds
B3: leucine-rich repeat containing receptor LGR5 (receptor, UniProt O75473 22-907)
chain: GSSPRSGVLLRGCPTHCHCEPDGRMLLRVDCSDLGLSELPSNLSVFTSYLDLSMNNISQLLPNPLPSLRFLEELRLAGNALTYIPKGAFTGLYSLKVLMLQNNQLRHVPTEALQNLRSLQSLRLDANHISYVPPSCFSGLHSLRHLWLDDNALTEIPVQAFRSLSALQAMTLALNKIHHIPDYAFGNLSSLVVLHLHNNRIHSLGKKCFDGLHSLETLDLNYNNLDEFPTAIRTLSNLKELGFHSNNIRSIPEKAFVGNPSLITIHFYDNPIQFVGRSAFQHLPELRTLTLNGASQITEFPDLTGTANLESLTLTGAQISSLPQTVCNQLPNLQVLDLSYNLLEDLPSFSVCQKLQKIDLRHNEIYEIKVDTFQQLLSLRSLNLAWNKIAIIHPNAFSTLPSLIKLDLSSNLLSSFPITGLHGLTHLKLTGNHALQSLISSENFPELKVIEMPYAYQCCAFGVCENAYKISNQWNKGDNSSMDDLHKKDAGMFQAQDERDLEDFLLDFEEDLKALHSVQCSPSPGPFKPCEHLLDGWLIRIGVWTIAVLALTCNALVTSTVFRSPLYISPIKLLIGVIAAVNMLTGVSSAVLAGVDAFTFGSFARHGAWWENGVGCHVIGFLSIFASESSVFLLTLAALERGFSVKYSAKFETKAPFSSLKVIILLCALLALTMAAVPLLGGSKYGASPLCLPLPFGEPSTMGYMVALILLNSLCFLMMTIAYTKLYCNLDKGDLENIWDCSMVKHIALLLFTNCILNCPVAFLSFSSLINLTFISPEVIKFILLVVVPLPACLNPLLYILFNPHFKEDLVSLRKQTYVWTRSKHPSLMSINSDDVEKQSCDSTQALVTFTSSSITYDLPPSSVPSPAYPVTESCHLSSVAFVPCL

- binding (FZD10 (human)): binds
B5: FZD10 (receptor, UniProt Q9ULW2 21-581)
chain: ISSMDMERPGDGKCQPIEIPMCKDIGYNMTRMPNLMGHENQREAAIQLHEFAPLVEYGCHGHLRFFLCSLYAPMCTEQVSTPIPACRVMCEQARLKCSPIMEQFNFKWPDSLDCRKLPNKNDPNYLCMEAPNNGSDEPTRGSGLFPPLFRPQRPHSAQEHPLKDGGPGRGGCDNPGKFHHVEKSASCAPLCTPGVDVYWSREDKRFAVVWLAIWAVLCFFSSAFTVLTFLIDPARFRYPERPIIFLSMCYCVYSVGYLIRLFAGAESIACDRDSGQLYVIQEGLESTGCTLVFLVLYYFGMASSLWWVVLTLTWFLAAGKKWGHEAIEANSSYFHLAAWAIPAVKTILILVMRRVAGDELTGVCYVGSMDVNALTGFVLIPLACYLVIGTSFILSGFVALFHIRRVMKTGGENTDKLEKLMVRIGLFSVLYTVPATCVIACYFYERLNMDYWKILAAQHKCKMNNQTKTLDCLMAASIPAVEIFMVKIFMLLVVGITSGMWIWTSKTLQSWQQVCSRRLKKKSRRKPASVITSGGIYKKAQHPQKTHHGKYEIPAQSPTCV

Second part, the binder before the results:

B1: CCR6 (receptor, UniProt P51684 1-374)
chain: MSGESMNFSDVFDSSEDYFVSVNTSYYSVDSEMLLCSLQEVRQFSRLFVPIAYSLICVFGLLGNILVVITFAFYKKARSMTDVYLLNMAIADILFVLTLPFWAVSHATGAWVFSNATCKLLKGIYAINFNCGMLLLTCISMDRYIAIVQATKSFRLRSRTLPRSKIICLVVWGLSVIISSSTFVFNQKYNTQGSDVCEPKYQTVSEPIRWKLLMLGLELLFGFFIPLMFMIFCYTFIVKTLVQAQNSKRHKAIRVIIAVVLVFLACQIPHNMVLLVTAANLGKMNRSCQSEKLIGYTKTVTEVLAFLHCCLNPVLYAFIGQKFRNYFLKILKDLWCVRRKYKSSGFSCAGRYSENISRQTSETADNDNASSFTM
- binding (CCR6 (human)): no binding

B2: CarB (receptor, UniProt P34907 1-375)
chain: MTIMSDIIAQRTILLIADFSSIIGCSLVLIGFWRLKLLRNHITKIISLFCATSLFKDVISTIITLLYKPDQTESGFPCYLHAIVITFGSLACWLWTLMLSFSIYNLIVRREPEPERFEKFYFCLCYGLPLISTIVMLSTHIIQPVGGWCWIGDNYDGYRFGLFYGPFFFIWGTSAILVGLTSKYTYSVIRSSVSDNKDKHMTYQFKLINYIVVFLVCWVFAIVNRILNGLNQFPTVPNVLHTYFSVSHGFYASITFIYNNPLMWRYFGAKFLLIFSKFGLFVQAQQRLELNKNNNNPSPIMRSKNALDNGADSSVVELPCLSKADSLSLDAENNIETPKENENQNHHHHHHHHHHHNHYNNNNNNNNINNKNDMI
- binding [1]: no binding

B4: CrlC (receptor, UniProt Q6UUW6 1-361)
chain: MGIEESQICNPSDREFLSVDILNIVTSSLSLMGSALTIISYIWKKVRRHRIQKQQIQQQQQQIEKGGLLSSSITIGNGSSHYGGIGGGGGSGNGTGIGAIGGPHGTYKQPTSKLPLLIFMLSIADFFTSFFIIISQSYLINNSKSYSTPYSPDLKIHFSPCIILRAIIQFFFLSTFFWTTCISYYLFHQLSSPGEEKYLLAIFNVVSWGIPFAISMVITMTNSIVVNSDGWCEVAKPMELSLWFLPLFLCLLVCSIYYFRLRRLFRSKFEYRLQINDRLKQLDSTISRRLTLYIVVFVICWLPDVIQHFISFFSKCTFFPLLILQNILTPSQGFWNFWIYSYTNKIARFTPSNDENKRLLQ
- binding [3]: no binding
